Results: PMC3679059
Results are given in words; binding and its absence hold for the method and conditions named. In cells and extracts the contact can be indirect. Binding calls can cover weak binding; strength is not graded here. Sequences can lack the tags named with a protein. Blank lines part the entries; values can stand above or below the binder they belong to.

Columns and labels:
[1] = target: CCI1-GFP (Arabidopsis thaliana); assay: co-IP; proteins co-expressed in the same N. benthamiana leaves; total membrane fraction solubilised with 1% triton X-100; IP with anti-GFP and protein A agarose at 4°C, blot with anti-FLAG
[2] = target: GST-CCI1 (Arabidopsis thaliana); assay: pull-down; soluble sonicates of E. coli with GST-CCI1 or GST-CCI2 and CLV1 KD-GFP combined, glutathione sepharose 30 minutes at room temperature, washed 3 times, eluted, blot with anti-GFP (ab6556); the legend says purified proteins, immunoprecipitated with anti-GST antibodies
[3] = target: GST-CCI2 (Arabidopsis thaliana); assay: as above

- binding [1]: binds
B1: BAM1-FLAG (full-length) (receptor, UniProt O49545 20-1003)
chain: SRPISEFRALLSLKTSLTGAGDDKNSPLSSWKVSTSFCTWIGVTCDVSRRHVTSLDLSGLNLSGTLSPDVSHLRLLQNLSLAENLISGPIPPEISSLSGLRHLNLSNNVFNGSFPDEISSGLVNLRVLDVYNNNLTGDLPVSVTNLTQLRHLHLGGNYFAGKIPPSYGSWPVIEYLAVSGNELVGKIPPEIGNLTTLRELYIGYYNAFEDGLPPEIGNLSELVRFDGANCGLTGEIPPEIGKLQKLDTLFLQVNVFSGPLTWELGTLSSLKSMDLSNNMFTGEIPASFAELKNLTLLNLFRNKLHGEIPEFIGDLPELEVLQLWENNFTGSIPQKLGENGKLNLVDLSSNKLTGTLPPNMCSGNKLETLITLGNFLFGSIPDSLGKCESLTRIRMGENFLNGSIPKGLFGLPKLTQVELQDNYLSGELPVAGGVSVNLGQISLSNNQLSGPLPPAIGNFTGVQKLLLDGNKFQGPIPSEVGKLQQLSKIDFSHNLFSGRIAPEISRCKLLTFVDLSRNELSGEIPNEITAMKILNYLNLSRNHLVGSIPGSISSMQSLTSLDFSYNNLSGLVPGTGQFSYFNYTSFLGNPDLCGPYLGPCKDGVAKGGHQSHSKGPLSASMKLLLVLGLLVCSIAFAVVAIIKARSLKKASESRAWRLTAFQRLDFTCDDVLDSLKEDNIIGKGGAGIVYKGVMPNGDLVAVKRLAAMSRGSSHDHGFNAEIQTLGRIRHRHIVRLLGFCSNHETNLLVYEYMPNGSLGEVLHGKKGGHLHWDTRYKIALEAAKGLCYLHHDCSPLIVHRDVKSNNILLDSNFEAHVADFGLAKFLQDSGTSECMSAIAGSYGYIAPEYAYTLKVDEKSDVYSFGVVLLELVTGRKPVGEFGDGVDIVQWVRKMTDSNKDSVLKVLDPRLSSIPIHEVTHVFYVAMLCVEEQAVERPTMREVVQILTEIPKLPPSKDQPMTESAPESELSPKSGVQSPPDLLNL

- binding [2]: binds
- binding [3]: binds
B2: CLV1KD-GFP (domain or fragment, UniProt Q9SYQ8 692-968)
chain: LKEENIIGKGGAGIVYRGSMPNNVDVAIKRLVGRGTGRSDHGFTAEIQTLGRIRHRHIVRLLGYVANKDTNLLLYEYMPNGSLGELLHGSKGGHLQWETRHRVAVEAAKGLCYLHHDCSPLILHRDVKSNNILLDSDFEAHVADFGLAKFLVDGAASECMSSIAGSYGYIAPEYAYTLKVDEKSDVYSFGVVLLELIAGKKPVGEFGEGVDIVRWVRNTEEEITQPSDAAIVVAIVDPRLTGYPLTSVIHVFKIAMMCVEEEAAARPTMREVVHMLT

- binding [1]: binds
B3: CLV1-FLAG (full-length) (receptor, UniProt Q9SYQ8 25-980)
chain: YTDMEVLLNLKSSMIGPKGHGLHDWIHSSSPDAHCSFSGVSCDDDARVISLNVSFTPLFGTISPEIGMLTHLVNLTLAANNFTGELPLEMKSLTSLKVLNISNNGNLTGTFPGEILKAMVDLEVLDTYNNNFNGKLPPEMSELKKLKYLSFGGNFFSGEIPESYGDIQSLEYLGLNGAGLSGKSPAFLSRLKNLREMYIGYYNSYTGGVPPEFGGLTKLEILDMASCTLTGEIPTSLSNLKHLHTLFLHINNLTGHIPPELSGLVSLKSLDLSINQLTGEIPQSFINLGNITLINLFRNNLYGQIPEAIGELPKLEVFEVWENNFTLQLPANLGRNGNLIKLDVSDNHLTGLIPKDLCRGEKLEMLILSNNFFFGPIPEELGKCKSLTKIRIVKNLLNGTVPAGLFNLPLVTIIELTDNFFSGELPVTMSGDVLDQIYLSNNWFSGEIPPAIGNFPNLQTLFLDRNRFRGNIPREIFELKHLSRINTSANNITGGIPDSISRCSTLISVDLSRNRINGEIPKGINNVKNLGTLNISGNQLTGSIPTGIGNMTSLTTLDLSFNDLSGRVPLGGQFLVFNETSFAGNTYLCLPHRVSCPTRPGQTSDHNHTALFSPSRIVITVIAAITGLILISVAIRQMNKKKNQKSLAWKLTAFQKLDFKSEDVLECLKEENIIGKGGAGIVYRGSMPNNVDVAIKRLVGRGTGRSDHGFTAEIQTLGRIRHRHIVRLLGYVANKDTNLLLYEYMPNGSLGELLHGSKGGHLQWETRHRVAVEAAKGLCYLHHDCSPLILHRDVKSNNILLDSDFEAHVADFGLAKFLVDGAASECMSSIAGSYGYIAPEYAYTLKVDEKSDVYSFGVVLLELIAGKKPVGEFGEGVDIVRWVRNTEEEITQPSDAAIVVAIVDPRLTGYPLTSVIHVFKIAMMCVEEEAAARPTMREVVHMLTNPPKSVANLIAF
